Measurements from patent publication US20160304584.
A weaker result is weaker than the reference pair of the same experiment. For some assays here: For at least one entry, the source does not settle the construct or the ends of the probe.

Protein sequences, listed by entry. Tags and fused reporters are not part of them. Residues count along the entry.
UniProt P54841, 211-305 E269R: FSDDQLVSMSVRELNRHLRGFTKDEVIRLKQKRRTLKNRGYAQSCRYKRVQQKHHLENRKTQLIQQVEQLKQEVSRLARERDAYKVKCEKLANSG
UniProt P54841, 211-305: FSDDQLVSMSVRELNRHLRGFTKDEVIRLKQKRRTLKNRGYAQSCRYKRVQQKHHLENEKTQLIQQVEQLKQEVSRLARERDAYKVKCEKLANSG

Assays:
[1] = target: MafB (E269R) homodimer (UniProt P54841); assay: EMSA; conditions: detectable only with excessive MafB; purified recombinant protein; label: 32P; variant of T-MARE(alpha)
[2] = target: MafB (wt) homodimer (UniProt P54841); assay: EMSA; conditions: strong preference of site for heterodimer; purified recombinant protein; label: 32P; variant of T-MARE(alpha)

Row | Sequence | binding result [1] | binding result [2]
1 | TCGTCCCTTATGCCTACTAGGCAATTCTC (double strand) [T-MARE(gamma)] | binds more weakly | 
2 | TCGTCCCCTCCTATGAGTCAGCAATTCTC (double strand) [T-MARE(beta)] |  | binds more weakly
